Here are results for one substance from paper PMC4528263.

Protein sequences, listed by entry. Tags and fused reporters are not part of them. Residues count along the entry.
UniProt O14786, residues 22-923: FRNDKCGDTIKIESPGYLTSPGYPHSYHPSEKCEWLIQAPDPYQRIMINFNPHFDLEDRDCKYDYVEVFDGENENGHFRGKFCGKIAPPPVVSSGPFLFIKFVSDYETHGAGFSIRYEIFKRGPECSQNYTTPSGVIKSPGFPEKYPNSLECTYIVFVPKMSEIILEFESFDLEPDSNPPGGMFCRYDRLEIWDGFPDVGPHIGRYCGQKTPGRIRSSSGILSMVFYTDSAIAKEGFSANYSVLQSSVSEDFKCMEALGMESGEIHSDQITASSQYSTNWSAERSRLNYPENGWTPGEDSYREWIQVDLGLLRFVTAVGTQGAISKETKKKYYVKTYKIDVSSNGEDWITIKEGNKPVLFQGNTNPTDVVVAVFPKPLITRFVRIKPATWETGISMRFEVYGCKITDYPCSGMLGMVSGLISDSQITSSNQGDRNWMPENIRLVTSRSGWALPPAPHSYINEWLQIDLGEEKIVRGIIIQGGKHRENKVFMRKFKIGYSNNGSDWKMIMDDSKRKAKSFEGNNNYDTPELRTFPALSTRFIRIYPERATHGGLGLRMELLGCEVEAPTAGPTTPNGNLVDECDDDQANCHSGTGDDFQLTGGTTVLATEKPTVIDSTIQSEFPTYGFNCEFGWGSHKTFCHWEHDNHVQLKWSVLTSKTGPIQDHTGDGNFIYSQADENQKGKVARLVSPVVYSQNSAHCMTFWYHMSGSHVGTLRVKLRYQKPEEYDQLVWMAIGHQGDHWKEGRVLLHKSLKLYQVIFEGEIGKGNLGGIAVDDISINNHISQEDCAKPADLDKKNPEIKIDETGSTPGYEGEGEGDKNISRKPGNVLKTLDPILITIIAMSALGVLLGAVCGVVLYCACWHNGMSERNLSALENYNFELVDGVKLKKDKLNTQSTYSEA
UniProt P60953: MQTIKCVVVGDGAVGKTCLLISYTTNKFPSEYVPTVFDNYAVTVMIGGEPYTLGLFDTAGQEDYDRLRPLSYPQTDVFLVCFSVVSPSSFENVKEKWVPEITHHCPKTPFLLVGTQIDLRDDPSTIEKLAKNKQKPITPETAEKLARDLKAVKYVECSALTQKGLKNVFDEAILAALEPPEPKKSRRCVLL

This assay concerns the target Neuropilin 1 (NRP1) (human (endogenous in HDMECs)) (UniProt O14786). Kind of assay: co-IP; lysates from non-adherent (NA) and FN-adherent HDMECs immunoprecipitated with control IgG or NRP1 antibody, then immunoblotted for NRP1 and CDC42; endogenous proteins.

These are yes or no findings as the source states them, for the method shown. In cells and extracts the contact can be indirect. Some binding calls cover weakened binding; strength is not graded here.

As to CDC42 (from UniProt P60953 1-191), the binding entry was “binds”.
